According to PubChem BioAssay AID248 (DTP/NCI, 2004):
The list shows only some results of the screen, not a fair sample: it gathers tests that were run many times, whatever their T/C, doses with no T/C, and many T/C values between a quarter and a half above the control. Other doses and runs of a compound stand elsewhere. T/C gives the treated animals as a percentage of the vehicle group. Some doses have a count of surviving animals in place of a T/C: the source holds a T/C of zero for them, seemingly a mark for toxic or unscored doses. Some survivor counts are full or nearly so, which does not show that the dose was tolerated: the source hardly ever lists a survival T/C far under the control, and the zero likely stands for such cases as well. Survivors were counted at the toxicity check, usually on the fifth day, unless a day is given; later deaths do not show. Schedules are NCI's codes, read here as Q, the interval in days (D) or hours (H), X, the number of doses. Where survival is the endpoint, the PubChem record calls one and a half times the control and up active, and a quarter to a half above the control has no call in these data; cut-offs in other NCI protocols can differ.

Test system: L1210 leukemia ip in BDF1 mice, survival T/C
Assay: NCI In Vivo Anticancer Drug Screen. Data for tumor model L1210 Leukemia (intraperitoneal) in B6D2F1 (BDF1) mice
Details: T/C endpoint: mean survival time, higher T/C = longer survival
[1] = dose: 400.0 mg/kg/injection, schedule: Q01DX001 (ip), vehicle: saline
[2] = dose: 100.0 mg/kg/injection, schedule: Q01DX009 (ip), vehicle: Klucel (hydroxypropylcellulose) (HPC)
[3] = dose: 200.0 mg/kg/injection, schedule: Q01DX009 (ip), vehicle: Klucel (hydroxypropylcellulose) (HPC)
[4] = dose: 400.0 mg/kg/injection, schedule: Q01DX009 (ip), vehicle: Klucel (hydroxypropylcellulose) (HPC)

Q: `CC(C)CCN=C(N)N=C(N)N` was tested. Which survivor count (dose: 200.0 mg/kg/injection, schedule: Q04DX002 (ip), vehicle: saline) did it give?
A: 0 of 3

Q: What about the survivor count (dose: 400.0 mg/kg/injection, schedule: Q04DX002 (ip), vehicle: saline) of the same compound?
A: 0 of 3

Q: How did the survivor count (dose: 25.0 mg/kg/injection, schedule: Q04DX002 (ip), vehicle: saline with Tween-80) turn out when `CN1C(=O)CC(c2ccc(NC(=O)CI)cc2)C1=O` (stereo not drawn) was run?
A: 1 of 3

Q: And the survivor count (dose: 50.0 mg/kg/injection, schedule: Q04DX002 (ip), vehicle: saline with Tween-80)?
A: 1 of 3

Q: What about the survivor count (dose: 100.0 mg/kg/injection, schedule: Q04DX002 (ip), vehicle: saline with Tween-80) of the same compound?
A: 0 of 3

Q: And the survivor count (dose: 200.0 mg/kg/injection, schedule: Q04DX002 (ip), vehicle: saline with Tween-80)?
A: 0 of 3

Q: And the survivor count (dose: 400.0 mg/kg/injection, schedule: Q04DX002 (ip), vehicle: saline with Tween-80)?
A: 0 of 3

Q: With `CN1C2CCC1CC(OC(=O)c1ccc(O)cc1)C2` (stereo not drawn) as the compound, how does the survivor count (dose: 37.5 mg/kg/injection, schedule: Q01DX001 (ip), vehicle: saline) read?
A: 1 of 6

Q: How did the survivor count (dose: 400.0 mg/kg/injection, schedule: Q01DX001 (ip), vehicle: Klucel (hydroxypropylcellulose) (HPC)) turn out when `Cc1ccccc1-n1c(O)c(N=Nc2ccc(Cl)cc2)c(=O)n(-c2ccccc2)c1=S` was run?
A: 0 of 6

Q: `ClCCN(CCCl)c1ccc(CNCCCNCc2ccc(N(CCCl)CCCl)cc2)cc1` was tested. Which survivor count (dose: 40.0 mg/kg/injection, schedule: Q01DX001 (ip), vehicle: carboxymethylcellulose (CMC)) did it give?
A: 2 of 4

Q: What about the survivor count (dose: 50.0 mg/kg/injection, schedule: Q01DX001 (ip), vehicle: carboxymethylcellulose (CMC)) of the same compound?
A: 0 of 4

Q: And the survivor count (dose: 80.0 mg/kg/injection, schedule: Q01DX001 (ip), vehicle: carboxymethylcellulose (CMC))?
A: 0 of 4

Q: And the survivor count (dose: 100.0 mg/kg/injection, schedule: Q01DX001 (ip), vehicle: carboxymethylcellulose (CMC))?
A: 0 of 4

Q: What about the survivor count (dose: 200.0 mg/kg/injection, schedule: Q01DX001 (ip), vehicle: carboxymethylcellulose (CMC)) of the same compound?
A: 0 of 4

Q: What about the survivor count (dose: 400.0 mg/kg/injection, schedule: Q01DX001 (ip), vehicle: carboxymethylcellulose (CMC)) of the same compound?
A: 0 of 4

Q: Which survivor count (dose: 40.0 mg/kg/injection, schedule: Q01DX009 (ip), vehicle: Klucel (hydroxypropylcellulose) (HPC)) does the source give for `Cc1[nH]c(=O)[nH]c(=O)c1N(CCF)CCCl` here?
A: 6 of 6

Q: What about the survivor count (dose: 40.0 mg/kg/injection, schedule: Q01DX009 (ip), vehicle: saline) of the same compound?
A: 10 of 10

Q: What about the T/C (dose: 65.0 mg/kg/injection, schedule: Q04DX003 (ip), vehicle: Klucel (hydroxypropylcellulose) (HPC)) of the same compound?
A: 129 % of control

Q: What about the survivor count (dose: 80.0 mg/kg/injection, schedule: Q01DX009 (ip), vehicle: Klucel (hydroxypropylcellulose) (HPC)) of the same compound?
A: 0 of 6

Q: And the survivor count (dose: 80.0 mg/kg/injection, schedule: Q01DX009 (ip), vehicle: saline)?
A: 7 of 10

Q: What about the T/C (dose: 300.0 mg/kg/injection, schedule: Q01DX001 (ip), vehicle: Klucel (hydroxypropylcellulose) (HPC)) of the same compound?
A: 125 % of control

Q: And the survivor count (dose: 500.0 mg/kg/injection, schedule: Q01DX001 (ip), vehicle: Klucel (hydroxypropylcellulose) (HPC))?
A: 3 of 8

Q: How did the survivor count (dose: 400.0 mg/kg/injection, schedule: Q01DX001 (ip), vehicle: saline with Tween-80) turn out when `CN(C(=O)c1ccc(C(=N)N)cc1)c1ccccc1` was run?
A: 0 of 6

Q: For `Cc1ccc2nc(N=C(N)N)[nH]c2c1`, which survivor count (dose: 300.0 mg/kg/injection, schedule: Q01DX001 (ip), vehicle: saline) is on record?
A: 0 of 6

Q: For `[O-]/[N+](=C\c1ccccc1)c1ccccc1`, which survivor count [1] is on record?
A: 0 of 4

Q: For `CC(=O)Nc1ncnc(NC(C)=O)c1N=O`, which survivor count [1] is on record?
A: 0 of 3

Q: With `CN(C)CCOC(=O)c1ccccc1CCl` as the compound, how does the survivor count (dose: 87.5 mg/kg/injection, schedule: Q01DX009 (ip), vehicle: saline) read?
A: 1 of 6

Q: What about the survivor count (dose: 175.0 mg/kg/injection, schedule: Q01DX009 (ip), vehicle: saline) of the same compound?
A: 0 of 6

Q: And the survivor count (dose: 350.0 mg/kg/injection, schedule: Q01DX009 (ip), vehicle: saline)?
A: 0 of 6

Q: `CCCCCCCCCC(=O)N/N=C\c1cccc2ccccc12` was tested. Which survivor count [2] did it give?
A: 6 of 6

Q: And the survivor count [3]?
A: 6 of 6

Q: And the survivor count [4]?
A: 6 of 6

Q: How did the survivor count (dose: 150.0 mg/kg/injection, schedule: Q01DX001 (ip), vehicle: carboxymethylcellulose (CMC)) turn out when `O=[N+]([O-])c1cc(Cl)c(O)c([N+](=O)[O-])c1O` was run?
A: 0 of 6

Q: And the survivor count (dose: 300.0 mg/kg/injection, schedule: Q01DX001 (ip), vehicle: carboxymethylcellulose (CMC))?
A: 0 of 6

Q: How did the survivor count [4] turn out when `O=CNc1ccc(Br)cc1` was run?
A: 1 of 6

Q: With `CS(=O)(=O)c1ccc2nnnn2n1` as the compound, how does the survivor count (dose: 50.0 mg/kg/injection, schedule: Q04DX003 (ip), vehicle: saline) read?
A: 1 of 4

Q: And the survivor count (dose: 100.0 mg/kg/injection, schedule: Q04DX003 (ip), vehicle: saline)?
A: 0 of 4

Q: What about the survivor count (dose: 200.0 mg/kg/injection, schedule: Q04DX003 (ip), vehicle: saline) of the same compound?
A: 0 of 4

Q: Which results are given for `O=C(CCl)Nc1cccc(S(=O)(=O)F)c1`?
A: survivor count (dose: 200.0 mg/kg/injection, schedule: Q04DX003 (ip), vehicle: carboxymethylcellulose (CMC)): 6 of 6; survivor count (dose: 400.0 mg/kg/injection, schedule: Q04DX003 (ip), vehicle: carboxymethylcellulose (CMC)): 1 of 6

Q: Which survivor count (dose: 300.0 mg/kg/injection, schedule: Q01DX001 (ip), vehicle: saline with Tween-80) does the source give for `CC(C)c1ccc2c(c1)CCC1C(CN=C(N)CSS(=O)(=O)O)CCCC21C` (stereo not drawn) here?
A: 0 of 6

Q: For `O=C(Nc1cc2ccccc2nc1-c1ccccc1)c1ccccc1`, which survivor count (dose: 200.0 mg/kg/injection, schedule: Q01DX001 (ip), vehicle: saline) is on record?
A: 3 of 6

Q: What about the survivor count [1] of the same compound?
A: 0 of 6

Q: Which survivor count [4] does the source give for `c1ccc(SCN(CSc2ccccc2)c2ccccc2)cc1` here?
A: 0 of 6

Q: Which survivor count (dose: 50.0 mg/kg/injection, schedule: Q01DX009 (ip), vehicle: Klucel (hydroxypropylcellulose) (HPC)) does the source give for `O=[N+]([O-])c1cc([N+](=O)[O-])c(Nn2c3ccccc3c3ccccc32)c([N+](=O)[O-])c1` here?
A: 3 of 6

Q: And the survivor count [2]?
A: 0 of 6

Q: And the survivor count [3]?
A: 0 of 6

Q: What about the survivor count [4] of the same compound?
A: 0 of 6
